The campaign covered roughly 53,000 sequences. About 3,700 (7%) were called active.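 Rule for the calls: active = gene knockdowns whose robust z-score for IL-1 alpha signal is at least 2 or at most -2, so actives lie on both sides; inactive = the rest.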 Some of the results follow.
Test: Components of the Cytosolic LPS Sensing Pathway: Gene Identification via Genome-wide siRNA Screen;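 note: robust z of the log signal after scaling to non-targeting control siRNA wells of the plate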
Settings: RAW264.7 macrophages, IL-1a HTRF, actives lie on both sides, screened at 100 nM (by protocol), cells primed 5 h with Pam3CSK4 first
In short: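 Three distinct siRNAs per gene were tested singly at 100 nM in RAW264.7 macrophages. Following Pam3CSK4 priming and 24 hour LipidA transfection, IL-1a secretion was read by HTRF.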

Sequence	z-score
GGGAUGCUGUAGAUGGAAUTT against Olfr978	inactive: 0.0466
GCACUUGACAAGCAACAGUTT against Jup	active: -2.3
GGUGAUAUUAUACAUUCACTT against Rnd1	inactive: -0.418
GGAGGCACAGAGAUUGAAGTT against Sry	inactive: 0.247
GGAAAAUGAUAGCAGACAUTT against Zfp810	inactive: -1.72
GGAACAUUUCUGGAUUGUUTT against Muc1	inactive: -0.503
GGAUGGAAGCACUGACUAUTT against Lyzl1	inactive: -1.5
GCUAGUCCAACUCAUCAUUTT against Olfr430	inactive: -0.128
CGGACUCAAGCUUGUGAAATT against Syt17	inactive: 0.782
CCUCAGAUCUUGACCCUGGTT against Lrrn4cl	inactive: -0.407
GCACAUUUUACCAUUGCUATT against Hcfc1	inactive: -0.176
CGAAUUGGAUAAUACCCAUTT against Tpte	inactive: 0.0431
GCACCUAUACAACCUCGUGTT against Nisch	inactive: 0.402
GCAUGAUCAGUCAGCACUATT against Nr1d2	inactive: -1.29
GCUGCCCUGAAGGAUAUACTT against Grn	inactive: 0.24
GGGCAACAUUCUUCAGAAUTT against Defb5	inactive: 1.87
GGUUCUUUAAUGGGUUAUGTT against Tpd52l2	inactive: -0.0253
CGUGGAGCUACCAUAUAGGTT against Mob3b	inactive: 0.581
CCCUUACGACUUGGCUUUGTT against Atp6v0a1	inactive: -0.131
GGGAGAAGAUAUAAAAACUTT against Krt20	inactive: 1.52
GCUAACAAAGAUUCACCCATT against Aspn	inactive: -0.742
GCAGUACAUAGACAAGUUATT against Ccdc88c	inactive: -0.0122
GGGUGCAGUGUUGUUUAUATT against Septin7	inactive: -0.0489

Sequence	z-score
GCGGUUCUUUUCAGAGCACTT against Fbxo21	inactive: 0.363
GUCAUAAUGAGUCAUAGAATT against Olfr149	inactive: -1.02
CCUACAAUGAUUUUCUCAUTT against Impdh2	inactive: 0.982
GGAAGAGUUACAGUUGAUUTT against Rcbtb2	inactive: -0.282
GGAGUAUUACCUGGUUAAGTT against Suv39h1	inactive: -1.18
GGCAUAGCUUGGAAUGGAATT against Npas2	inactive: -0.258
GGGUUCACAUGGCAUAGUCTT against Zfp1	inactive: -0.0137
GGGAAUGAUUAAGCUAGCCTT against Acvr1b	inactive: 1.22
GGUAAAGGUGGCUUUGAGATT against Olfr975	inactive: -0.919
GGUGAUCAUGGCAAGAUGGTT against Fgf3	inactive: -0.791
GGAGCACAUGUCCUACAUCTT against Wnt5b	inactive: -0.199
GCCAGUGUUCAACUCAUGCTT against Trmt1l	inactive: 1.04
GGUCUUCAGAAUCCUCAAUTT against Ap1g2	inactive: -0.4
GGACACUGCGCAAGACUUCTT against Trim35	inactive: 0.506
GGAAGUAUGGAAGUCAAGUTT against Defb9	inactive: 0.0197
GCAGUAACGAGGUUUUGAUTT against Rbm48	inactive: -1.43
GGAAAAUGUCCAUUACUUUTT against Acad9	inactive: 1.28
GGCACAUUCAUGCAAUAAATT against Ctla2a	inactive: -0.87
GGCCAUCUCCUUCAACUAUTT against Ugt2a1	inactive: 1.24
GCGGCCUGUGAGAGUUUAUTT against Pcyt1a	active: 3.4
GGUCAAGUCAAGAGUGAGATT against BC048562	inactive: 0.2
CCUUCGAUAAGAAUUACAATT against Rab34	inactive: 0.0182
GGCCAAAGUUUACCUUCUATT against Iars	inactive: -1.86

Quoted at random: 5 entries already listed, in no set order.
Sequence	z-score
GCGGUUCUUUUCAGAGCACTT against Fbxo21	inactive: 0.363
GGGAAUGAUUAAGCUAGCCTT against Acvr1b	inactive: 1.22
GCCAGUGUUCAACUCAUGCTT against Trmt1l	inactive: 1.04
GGAGUAUUACCUGGUUAAGTT against Suv39h1	inactive: -1.18
GGUCUUCAGAAUCCUCAAUTT against Ap1g2	inactive: -0.4

Continued:

Sequence	z-score
GGGUUCCAGAUACUUUCUUTT against Zmym3	inactive: -1.82
GGAGAUCUUUCACAUGACCTT against Hcn3	inactive: -0.573
GGUGAAGAGUGAUUUUAAUTT against Il10	inactive: 1.03
GGUUGUGUGUCUGUUUGGUTT against Olfr1012	inactive: 1.29
GAACUUUUUUUCUGUGAACTT against Olfr175	inactive: -1.58
GGAACAGGAGAAUGACAUCTT against D5Ertd579e	inactive: -1.25
GCCAUCUGGGUUUUGAUUGTT against AF067061	inactive: -0.233
GGAAGUGAGUCAGAGCUCATT against Cdc42ep3	inactive: 1.14
CCGCCGAUCUACUAGUGGUTT against Slc6a2	inactive: 0.46
CCUUUCAUACUUACAUCCUTT against Rxfp4	inactive: 1.47
GCUGGAAGGAGGAACCAAGTT against 1810037I17Rik	inactive: -0.138
GCUAUAUGUACCCUAGCCATT against H2aj	active: 2.26
CCGAAGCUCUGUUUUGAACTT against Hdac9	inactive: 0.118
GCACGCACACUUAUGAUACTT against Meox2	inactive: 0.13
GGCUCAUUGGACAUAUAUGTT against Casp8ap2	inactive: -1.77
GCCGGAUUCAUUGAAAGCATT against Eif2ak3	inactive: -0.284
CCGAUUCUUAGAAAUGUUCTT against Olfr692	inactive: -0.791
CCUGAGAGUAUUCACCAGCTT against Fbp2	inactive: 0.572
GGAUCAUCAAAGACGACAUTT against Prss34	inactive: 0.499
GGUGACAAGAGGUUUUGCUTT against Idh3a	inactive: -1.31
GGUUGAGUUCCGAUCCCAUTT against Gip	inactive: 0.954
GGCAACAGCCCAGAAAUUCTT against Klhl31	inactive: -0.492
